Article doi:10.1101/2021.07.21.452842
These are yes or no findings as the source states them, for the method shown. Binding seen in cells or lysates may run through a third protein. These calls come from enrichment with a bait or labelling near it, and not all partners need be listed.

Sequences of proteins named here, by UniProt entry; tags and fusion partners are left off. A change or cut given only in a name is not applied to a line headed by its entry. A line that says so, or that is headed by a name, gives the form on record, which may keep a tag or linker.
mycBirA-tagged full-length GIV (Q3V6T2, form named): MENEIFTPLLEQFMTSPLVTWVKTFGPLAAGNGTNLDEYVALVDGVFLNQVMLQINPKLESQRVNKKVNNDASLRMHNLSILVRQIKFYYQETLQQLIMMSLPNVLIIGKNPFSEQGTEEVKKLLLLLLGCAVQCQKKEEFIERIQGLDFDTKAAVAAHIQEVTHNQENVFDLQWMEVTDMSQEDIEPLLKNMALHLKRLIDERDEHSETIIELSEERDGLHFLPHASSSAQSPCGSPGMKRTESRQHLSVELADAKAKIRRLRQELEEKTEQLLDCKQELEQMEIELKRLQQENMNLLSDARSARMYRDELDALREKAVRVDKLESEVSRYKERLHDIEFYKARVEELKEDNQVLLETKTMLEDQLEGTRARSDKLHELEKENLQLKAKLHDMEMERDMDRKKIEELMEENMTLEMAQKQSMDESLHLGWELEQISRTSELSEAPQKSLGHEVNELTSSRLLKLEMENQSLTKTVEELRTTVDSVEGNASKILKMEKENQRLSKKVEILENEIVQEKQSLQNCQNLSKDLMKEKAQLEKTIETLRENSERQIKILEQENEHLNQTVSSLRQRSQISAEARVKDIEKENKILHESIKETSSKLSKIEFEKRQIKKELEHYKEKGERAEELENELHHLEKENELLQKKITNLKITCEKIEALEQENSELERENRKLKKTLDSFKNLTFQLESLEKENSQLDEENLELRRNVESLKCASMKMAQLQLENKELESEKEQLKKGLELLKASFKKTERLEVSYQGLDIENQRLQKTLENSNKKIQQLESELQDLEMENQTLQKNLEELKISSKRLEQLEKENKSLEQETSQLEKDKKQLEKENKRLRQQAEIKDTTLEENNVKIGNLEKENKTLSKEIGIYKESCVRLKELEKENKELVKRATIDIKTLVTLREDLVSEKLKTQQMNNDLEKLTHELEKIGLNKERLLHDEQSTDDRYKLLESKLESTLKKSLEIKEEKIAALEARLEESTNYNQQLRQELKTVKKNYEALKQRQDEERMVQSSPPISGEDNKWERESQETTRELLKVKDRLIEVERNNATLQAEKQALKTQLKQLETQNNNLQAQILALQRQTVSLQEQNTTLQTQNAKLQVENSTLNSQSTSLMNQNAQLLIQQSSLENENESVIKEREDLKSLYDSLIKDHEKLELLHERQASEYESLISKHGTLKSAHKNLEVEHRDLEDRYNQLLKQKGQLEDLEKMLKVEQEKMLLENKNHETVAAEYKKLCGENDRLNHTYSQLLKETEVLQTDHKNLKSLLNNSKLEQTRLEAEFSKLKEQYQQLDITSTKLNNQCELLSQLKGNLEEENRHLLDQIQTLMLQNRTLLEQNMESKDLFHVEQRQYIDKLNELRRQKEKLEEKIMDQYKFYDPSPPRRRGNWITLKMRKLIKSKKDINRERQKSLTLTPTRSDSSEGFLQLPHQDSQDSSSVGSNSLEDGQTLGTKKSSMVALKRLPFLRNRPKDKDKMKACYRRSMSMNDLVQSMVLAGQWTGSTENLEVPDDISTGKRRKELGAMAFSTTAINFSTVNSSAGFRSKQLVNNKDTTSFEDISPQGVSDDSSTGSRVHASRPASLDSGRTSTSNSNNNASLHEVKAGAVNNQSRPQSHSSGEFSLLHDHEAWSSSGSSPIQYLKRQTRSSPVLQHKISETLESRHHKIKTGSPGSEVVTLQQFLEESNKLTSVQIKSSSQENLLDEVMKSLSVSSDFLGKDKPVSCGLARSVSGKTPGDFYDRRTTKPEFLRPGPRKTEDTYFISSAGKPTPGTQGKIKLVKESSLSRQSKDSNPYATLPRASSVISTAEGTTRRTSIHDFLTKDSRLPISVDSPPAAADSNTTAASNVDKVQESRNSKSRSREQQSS
UniProt Q13535: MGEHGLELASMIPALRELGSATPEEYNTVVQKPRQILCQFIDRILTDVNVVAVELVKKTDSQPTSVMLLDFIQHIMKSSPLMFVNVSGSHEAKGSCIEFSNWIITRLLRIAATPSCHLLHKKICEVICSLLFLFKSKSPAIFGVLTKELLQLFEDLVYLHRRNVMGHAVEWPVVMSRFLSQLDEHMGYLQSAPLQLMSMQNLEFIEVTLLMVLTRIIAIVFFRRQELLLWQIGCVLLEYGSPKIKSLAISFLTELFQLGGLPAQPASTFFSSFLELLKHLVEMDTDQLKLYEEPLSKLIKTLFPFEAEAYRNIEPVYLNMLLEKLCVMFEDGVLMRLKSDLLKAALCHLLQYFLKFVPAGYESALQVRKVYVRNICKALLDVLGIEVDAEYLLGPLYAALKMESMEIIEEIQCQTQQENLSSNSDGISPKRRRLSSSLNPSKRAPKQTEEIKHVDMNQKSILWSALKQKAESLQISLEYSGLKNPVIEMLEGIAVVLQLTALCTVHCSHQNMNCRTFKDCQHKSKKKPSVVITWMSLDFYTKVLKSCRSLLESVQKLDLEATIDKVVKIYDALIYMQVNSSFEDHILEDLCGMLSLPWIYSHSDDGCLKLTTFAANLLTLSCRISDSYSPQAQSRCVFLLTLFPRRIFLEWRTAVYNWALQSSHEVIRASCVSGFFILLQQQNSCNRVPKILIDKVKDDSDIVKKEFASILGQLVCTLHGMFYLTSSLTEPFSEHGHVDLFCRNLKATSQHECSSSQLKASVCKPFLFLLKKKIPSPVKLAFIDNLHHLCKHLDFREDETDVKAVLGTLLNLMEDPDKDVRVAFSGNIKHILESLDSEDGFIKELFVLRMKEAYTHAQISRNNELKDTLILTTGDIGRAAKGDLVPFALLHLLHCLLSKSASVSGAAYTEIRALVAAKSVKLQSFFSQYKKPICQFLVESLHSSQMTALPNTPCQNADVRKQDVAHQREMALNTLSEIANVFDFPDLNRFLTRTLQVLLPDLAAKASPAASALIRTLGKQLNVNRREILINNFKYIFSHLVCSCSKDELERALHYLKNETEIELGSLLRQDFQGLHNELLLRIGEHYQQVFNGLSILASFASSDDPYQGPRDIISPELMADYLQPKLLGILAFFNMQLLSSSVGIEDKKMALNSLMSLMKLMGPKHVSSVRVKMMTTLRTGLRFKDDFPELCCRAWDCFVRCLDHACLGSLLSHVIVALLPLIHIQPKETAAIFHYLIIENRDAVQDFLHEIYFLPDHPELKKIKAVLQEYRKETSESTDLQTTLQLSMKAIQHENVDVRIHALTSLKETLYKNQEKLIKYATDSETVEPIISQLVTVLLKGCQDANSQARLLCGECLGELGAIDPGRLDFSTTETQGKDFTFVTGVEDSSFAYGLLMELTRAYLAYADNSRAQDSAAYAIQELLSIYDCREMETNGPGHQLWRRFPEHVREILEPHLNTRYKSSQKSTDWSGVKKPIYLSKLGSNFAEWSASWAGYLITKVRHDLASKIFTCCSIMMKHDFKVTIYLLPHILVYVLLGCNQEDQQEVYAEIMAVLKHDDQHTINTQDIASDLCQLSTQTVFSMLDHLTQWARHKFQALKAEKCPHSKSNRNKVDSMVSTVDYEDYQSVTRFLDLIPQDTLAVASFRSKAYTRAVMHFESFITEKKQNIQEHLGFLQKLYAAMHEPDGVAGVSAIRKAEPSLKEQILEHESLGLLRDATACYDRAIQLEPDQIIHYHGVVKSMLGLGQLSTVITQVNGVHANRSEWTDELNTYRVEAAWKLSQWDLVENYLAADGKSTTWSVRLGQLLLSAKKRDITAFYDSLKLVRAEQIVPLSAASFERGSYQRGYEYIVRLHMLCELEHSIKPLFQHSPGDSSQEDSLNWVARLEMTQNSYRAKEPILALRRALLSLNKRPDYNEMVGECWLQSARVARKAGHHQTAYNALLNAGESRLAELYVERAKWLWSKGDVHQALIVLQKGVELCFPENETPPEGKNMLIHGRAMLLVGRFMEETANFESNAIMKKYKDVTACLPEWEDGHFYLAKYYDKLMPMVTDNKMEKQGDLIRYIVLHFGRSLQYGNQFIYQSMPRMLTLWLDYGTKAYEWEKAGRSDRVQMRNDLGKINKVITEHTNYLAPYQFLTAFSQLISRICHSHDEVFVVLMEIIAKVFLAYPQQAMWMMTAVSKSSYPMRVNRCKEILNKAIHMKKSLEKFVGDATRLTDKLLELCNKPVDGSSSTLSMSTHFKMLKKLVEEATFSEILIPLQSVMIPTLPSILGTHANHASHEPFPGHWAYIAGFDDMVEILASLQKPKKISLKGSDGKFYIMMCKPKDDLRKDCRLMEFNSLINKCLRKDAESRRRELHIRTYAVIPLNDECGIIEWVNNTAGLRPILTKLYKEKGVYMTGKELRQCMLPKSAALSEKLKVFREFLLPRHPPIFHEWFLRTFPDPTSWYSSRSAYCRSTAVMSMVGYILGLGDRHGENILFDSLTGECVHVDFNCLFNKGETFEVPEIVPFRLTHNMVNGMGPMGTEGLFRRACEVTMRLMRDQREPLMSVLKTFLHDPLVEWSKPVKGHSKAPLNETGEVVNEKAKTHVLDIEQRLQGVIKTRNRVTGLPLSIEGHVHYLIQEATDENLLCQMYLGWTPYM

Target: mycBirA-tagged full-length GIV (UniProt Q3V6T2)
Assay: proximity labelling

binding: binds
Substance: Ataxia telangiectasia and Rad3 related protein (ATR), endogenous (from UniProt Q13535 1-2644)
